Laboratory results from the supplement of paper PMC12823440, “Inhibitors supercharge kinase turnover through native proteolytic circuits” (Nature, 2025).
Where a name gives a salt, the structure may show the parent alone. The list shows a part of the results. The calls rarely recur for the same compound in another form.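 Kinases, fused to nanoluciferase, were expressed in K562 cells; luminescence was measured every 4 h from 2 to 18 h as percent of control (DMSO = 100%, positive control = 0%). A time point is decreased if signal falls significantly (2 sigma). Hits were called by the authors by a rule that is not shown; the count of time points alone does not decide it.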

Amino acid sequences for entries named in this document (tags omitted). A change or cut given only in a name is not applied to a line headed by its entry.
UniProt P07949, whole entry, looked up: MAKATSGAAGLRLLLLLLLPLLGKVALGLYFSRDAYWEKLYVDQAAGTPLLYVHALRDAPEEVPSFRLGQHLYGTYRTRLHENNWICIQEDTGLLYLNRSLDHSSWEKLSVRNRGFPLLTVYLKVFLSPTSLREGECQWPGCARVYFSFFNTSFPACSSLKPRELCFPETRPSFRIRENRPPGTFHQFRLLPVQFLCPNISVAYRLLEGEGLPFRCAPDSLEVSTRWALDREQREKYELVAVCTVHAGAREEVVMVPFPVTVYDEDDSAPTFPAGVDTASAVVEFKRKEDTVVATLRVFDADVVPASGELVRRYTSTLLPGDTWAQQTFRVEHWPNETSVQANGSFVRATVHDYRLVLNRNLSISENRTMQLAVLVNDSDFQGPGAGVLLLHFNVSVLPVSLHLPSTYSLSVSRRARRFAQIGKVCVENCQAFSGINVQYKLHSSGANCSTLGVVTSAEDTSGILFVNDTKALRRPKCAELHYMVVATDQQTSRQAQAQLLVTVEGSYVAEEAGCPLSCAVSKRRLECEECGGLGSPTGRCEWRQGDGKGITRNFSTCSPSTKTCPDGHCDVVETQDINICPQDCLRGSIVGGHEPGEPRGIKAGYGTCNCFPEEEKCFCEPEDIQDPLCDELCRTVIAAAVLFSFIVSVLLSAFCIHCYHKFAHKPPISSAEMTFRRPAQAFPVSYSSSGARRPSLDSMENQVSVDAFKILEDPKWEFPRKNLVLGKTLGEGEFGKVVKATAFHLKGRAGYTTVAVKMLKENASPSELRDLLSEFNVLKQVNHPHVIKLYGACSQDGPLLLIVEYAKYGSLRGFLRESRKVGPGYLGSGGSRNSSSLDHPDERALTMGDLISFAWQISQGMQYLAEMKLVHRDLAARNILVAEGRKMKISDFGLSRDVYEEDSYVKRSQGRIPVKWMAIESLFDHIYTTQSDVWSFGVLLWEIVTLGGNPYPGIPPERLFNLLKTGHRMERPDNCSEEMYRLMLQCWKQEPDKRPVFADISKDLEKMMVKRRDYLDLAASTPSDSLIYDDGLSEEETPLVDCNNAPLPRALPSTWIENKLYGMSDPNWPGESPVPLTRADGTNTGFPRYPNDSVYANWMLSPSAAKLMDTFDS
UniProt P07949, whole entry M918T, looked up: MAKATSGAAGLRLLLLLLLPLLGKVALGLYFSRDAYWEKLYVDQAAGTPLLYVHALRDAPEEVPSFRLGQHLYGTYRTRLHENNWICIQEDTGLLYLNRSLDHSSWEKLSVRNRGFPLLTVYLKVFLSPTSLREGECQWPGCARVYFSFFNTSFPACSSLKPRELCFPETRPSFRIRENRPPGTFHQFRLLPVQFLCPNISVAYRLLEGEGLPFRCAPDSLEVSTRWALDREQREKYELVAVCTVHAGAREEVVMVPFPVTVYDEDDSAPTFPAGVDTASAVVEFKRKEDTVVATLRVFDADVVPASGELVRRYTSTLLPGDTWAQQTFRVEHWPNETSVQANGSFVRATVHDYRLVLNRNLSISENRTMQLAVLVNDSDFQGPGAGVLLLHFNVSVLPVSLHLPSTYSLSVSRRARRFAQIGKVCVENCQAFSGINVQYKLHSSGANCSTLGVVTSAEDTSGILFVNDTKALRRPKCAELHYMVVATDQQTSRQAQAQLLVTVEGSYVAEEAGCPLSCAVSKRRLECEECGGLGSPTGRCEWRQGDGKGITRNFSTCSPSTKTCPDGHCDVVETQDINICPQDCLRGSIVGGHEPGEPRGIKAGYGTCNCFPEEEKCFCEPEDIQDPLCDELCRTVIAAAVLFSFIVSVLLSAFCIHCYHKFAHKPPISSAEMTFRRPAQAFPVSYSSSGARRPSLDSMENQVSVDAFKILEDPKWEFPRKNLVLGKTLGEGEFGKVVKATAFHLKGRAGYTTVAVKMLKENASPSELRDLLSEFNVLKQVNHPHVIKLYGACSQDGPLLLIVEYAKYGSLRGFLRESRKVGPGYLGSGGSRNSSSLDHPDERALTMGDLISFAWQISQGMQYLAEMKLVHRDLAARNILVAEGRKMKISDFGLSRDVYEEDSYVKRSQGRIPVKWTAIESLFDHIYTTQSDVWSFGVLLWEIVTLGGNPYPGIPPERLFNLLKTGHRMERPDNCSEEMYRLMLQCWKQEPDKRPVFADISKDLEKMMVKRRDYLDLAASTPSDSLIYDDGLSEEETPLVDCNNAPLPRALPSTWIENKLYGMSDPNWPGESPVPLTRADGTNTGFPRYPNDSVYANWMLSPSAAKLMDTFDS
UniProt Q13546: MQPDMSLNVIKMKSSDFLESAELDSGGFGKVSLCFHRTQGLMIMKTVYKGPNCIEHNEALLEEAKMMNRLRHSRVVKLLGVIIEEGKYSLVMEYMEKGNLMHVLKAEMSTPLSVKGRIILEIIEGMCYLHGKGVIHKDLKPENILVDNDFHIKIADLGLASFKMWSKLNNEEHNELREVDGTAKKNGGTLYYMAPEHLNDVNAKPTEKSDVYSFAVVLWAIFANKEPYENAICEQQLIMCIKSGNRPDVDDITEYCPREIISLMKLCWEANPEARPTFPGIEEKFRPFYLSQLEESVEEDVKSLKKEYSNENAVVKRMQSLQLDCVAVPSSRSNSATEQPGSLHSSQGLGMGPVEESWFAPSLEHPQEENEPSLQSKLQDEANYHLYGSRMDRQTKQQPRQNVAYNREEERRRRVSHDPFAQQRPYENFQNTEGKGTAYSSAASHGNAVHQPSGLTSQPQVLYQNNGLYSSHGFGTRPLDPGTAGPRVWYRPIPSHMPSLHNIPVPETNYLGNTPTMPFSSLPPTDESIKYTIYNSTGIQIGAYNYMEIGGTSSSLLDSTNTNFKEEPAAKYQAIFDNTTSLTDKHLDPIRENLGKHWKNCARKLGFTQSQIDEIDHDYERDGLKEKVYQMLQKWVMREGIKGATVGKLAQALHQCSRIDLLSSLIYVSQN
UniProt Q9NYA1, whole entry: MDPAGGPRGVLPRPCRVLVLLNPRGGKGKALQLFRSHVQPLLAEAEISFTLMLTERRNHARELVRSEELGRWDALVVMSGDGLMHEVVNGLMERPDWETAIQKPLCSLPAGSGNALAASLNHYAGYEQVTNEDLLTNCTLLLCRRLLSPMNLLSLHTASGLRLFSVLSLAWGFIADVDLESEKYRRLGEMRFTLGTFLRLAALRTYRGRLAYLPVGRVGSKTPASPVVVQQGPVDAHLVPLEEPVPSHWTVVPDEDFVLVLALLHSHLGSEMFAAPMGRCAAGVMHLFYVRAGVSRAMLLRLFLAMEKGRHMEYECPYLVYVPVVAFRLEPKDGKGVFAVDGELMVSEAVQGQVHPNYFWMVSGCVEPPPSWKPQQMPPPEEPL
UniProt Q9Y6E0: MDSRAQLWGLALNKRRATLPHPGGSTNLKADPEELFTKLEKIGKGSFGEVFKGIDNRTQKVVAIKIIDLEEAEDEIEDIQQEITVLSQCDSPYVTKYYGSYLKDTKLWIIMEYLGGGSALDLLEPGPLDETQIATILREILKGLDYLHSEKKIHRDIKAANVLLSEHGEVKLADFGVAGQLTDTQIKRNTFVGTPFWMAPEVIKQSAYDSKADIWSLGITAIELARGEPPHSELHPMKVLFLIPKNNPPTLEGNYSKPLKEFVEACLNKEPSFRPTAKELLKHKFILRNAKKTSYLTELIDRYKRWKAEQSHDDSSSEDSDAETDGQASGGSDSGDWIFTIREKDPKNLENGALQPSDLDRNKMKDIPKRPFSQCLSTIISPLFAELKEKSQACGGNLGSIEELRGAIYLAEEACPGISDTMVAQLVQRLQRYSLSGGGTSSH
UniProt Q15208: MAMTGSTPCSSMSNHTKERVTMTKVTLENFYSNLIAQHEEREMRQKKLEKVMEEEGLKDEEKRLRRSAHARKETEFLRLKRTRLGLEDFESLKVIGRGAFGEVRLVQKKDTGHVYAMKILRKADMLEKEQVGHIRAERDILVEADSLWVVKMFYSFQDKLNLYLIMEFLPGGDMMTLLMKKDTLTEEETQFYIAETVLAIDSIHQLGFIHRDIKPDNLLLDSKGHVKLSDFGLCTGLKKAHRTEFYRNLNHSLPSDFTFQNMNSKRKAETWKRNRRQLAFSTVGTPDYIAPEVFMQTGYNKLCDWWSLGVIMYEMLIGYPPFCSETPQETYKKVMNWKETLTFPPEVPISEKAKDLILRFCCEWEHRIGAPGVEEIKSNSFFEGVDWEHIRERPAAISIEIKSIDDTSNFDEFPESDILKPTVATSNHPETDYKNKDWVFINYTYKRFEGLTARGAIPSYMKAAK
UniProt Q6PHR2: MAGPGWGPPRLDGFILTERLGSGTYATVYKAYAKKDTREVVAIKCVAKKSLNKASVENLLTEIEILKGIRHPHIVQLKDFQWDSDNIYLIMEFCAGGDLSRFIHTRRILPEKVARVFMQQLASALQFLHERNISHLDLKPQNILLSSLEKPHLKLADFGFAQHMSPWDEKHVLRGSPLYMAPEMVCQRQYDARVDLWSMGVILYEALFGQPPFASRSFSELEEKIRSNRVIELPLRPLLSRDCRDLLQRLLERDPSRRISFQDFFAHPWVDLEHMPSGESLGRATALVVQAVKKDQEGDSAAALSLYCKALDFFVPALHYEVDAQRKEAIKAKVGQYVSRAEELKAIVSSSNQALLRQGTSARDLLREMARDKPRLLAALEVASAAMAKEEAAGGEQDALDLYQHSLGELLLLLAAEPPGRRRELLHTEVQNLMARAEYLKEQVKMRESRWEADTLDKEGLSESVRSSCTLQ
UniProt P07947, whole entry, looked up: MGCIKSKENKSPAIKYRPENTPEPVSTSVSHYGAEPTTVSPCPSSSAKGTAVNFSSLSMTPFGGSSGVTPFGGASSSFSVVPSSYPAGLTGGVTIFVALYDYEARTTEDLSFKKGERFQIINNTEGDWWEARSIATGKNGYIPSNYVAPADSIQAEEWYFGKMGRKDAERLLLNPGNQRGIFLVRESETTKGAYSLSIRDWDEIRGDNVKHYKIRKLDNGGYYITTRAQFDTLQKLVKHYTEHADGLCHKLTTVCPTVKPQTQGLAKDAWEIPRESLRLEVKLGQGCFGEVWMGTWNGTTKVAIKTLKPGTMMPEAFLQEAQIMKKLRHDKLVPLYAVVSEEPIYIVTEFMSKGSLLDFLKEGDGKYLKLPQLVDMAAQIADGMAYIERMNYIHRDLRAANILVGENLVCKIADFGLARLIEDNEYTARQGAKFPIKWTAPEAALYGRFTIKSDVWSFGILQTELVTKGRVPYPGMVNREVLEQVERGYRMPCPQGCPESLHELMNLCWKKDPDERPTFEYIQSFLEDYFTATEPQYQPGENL
UniProt P43403: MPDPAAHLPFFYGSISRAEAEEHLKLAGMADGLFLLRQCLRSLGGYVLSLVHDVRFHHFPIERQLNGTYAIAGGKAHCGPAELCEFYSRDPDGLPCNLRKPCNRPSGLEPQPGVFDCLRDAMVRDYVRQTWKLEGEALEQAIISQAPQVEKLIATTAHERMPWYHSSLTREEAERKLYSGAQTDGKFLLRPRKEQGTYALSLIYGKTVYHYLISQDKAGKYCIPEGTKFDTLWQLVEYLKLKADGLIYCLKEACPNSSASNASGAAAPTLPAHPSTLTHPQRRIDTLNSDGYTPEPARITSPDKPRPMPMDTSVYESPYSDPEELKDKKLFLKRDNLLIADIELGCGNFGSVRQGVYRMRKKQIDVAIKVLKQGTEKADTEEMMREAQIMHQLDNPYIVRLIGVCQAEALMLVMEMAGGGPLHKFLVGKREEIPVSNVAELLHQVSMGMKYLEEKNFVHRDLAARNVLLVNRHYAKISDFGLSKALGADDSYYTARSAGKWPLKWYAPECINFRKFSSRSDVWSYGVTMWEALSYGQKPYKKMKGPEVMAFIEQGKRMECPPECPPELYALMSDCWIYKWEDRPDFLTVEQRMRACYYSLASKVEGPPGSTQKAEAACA
UniProt P11802: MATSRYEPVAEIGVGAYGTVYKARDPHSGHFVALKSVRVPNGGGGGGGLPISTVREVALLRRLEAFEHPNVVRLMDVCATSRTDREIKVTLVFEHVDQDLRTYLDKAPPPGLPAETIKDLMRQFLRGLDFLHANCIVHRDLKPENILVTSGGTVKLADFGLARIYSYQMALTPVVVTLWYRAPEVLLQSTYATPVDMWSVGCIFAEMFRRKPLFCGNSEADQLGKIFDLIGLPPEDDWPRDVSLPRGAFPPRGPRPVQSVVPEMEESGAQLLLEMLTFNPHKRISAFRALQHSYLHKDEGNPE
UniProt P50613: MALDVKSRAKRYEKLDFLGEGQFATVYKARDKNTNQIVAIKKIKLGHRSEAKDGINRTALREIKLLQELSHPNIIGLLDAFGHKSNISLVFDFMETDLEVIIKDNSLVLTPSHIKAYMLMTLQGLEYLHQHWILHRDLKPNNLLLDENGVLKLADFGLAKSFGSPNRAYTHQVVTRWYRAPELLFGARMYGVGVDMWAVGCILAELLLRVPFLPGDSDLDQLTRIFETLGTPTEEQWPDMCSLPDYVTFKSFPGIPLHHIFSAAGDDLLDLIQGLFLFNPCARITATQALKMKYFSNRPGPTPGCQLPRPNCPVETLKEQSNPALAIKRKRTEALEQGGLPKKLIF

Columns and labels:
Details in all cases: K562, 2-18 h
RET = RET (UniProt P07949); test: kinase-Nluc reporter destabilization hit call (1 = scored as downregulated) (binary); higher = compound decreases kinase abundance
[1] = target: RET_M918T (clone: RET_mut) (UniProt P07949); test: as above
RIOK1 = RIOK1 (UniProt Q9BRS2); test: as above
RIPK1 = RIPK1 (UniProt Q13546); test: as above
RIPK2 = RIPK2 (UniProt O43353); test: as above
ROR2 = ROR2 (UniProt Q01974); test: as above
RPS6KA1 = RPS6KA1 (UniProt Q15418); test: as above
SPHK1 = SPHK1 (UniProt Q9NYA1); test: as above
SRC = SRC (UniProt P12931); test: as above
STK24 = STK24 (UniProt Q9Y6E0); test: as above
STK38 = STK38 (UniProt Q15208); test: as above
SYK = SYK (UniProt P43405); test: as above
TEC = TEC (UniProt P42680); test: as above
TYK2 = TYK2 (UniProt P29597); test: as above
ULK3 = ULK3 (UniProt Q6PHR2); test: as above
YES1 = YES1 (UniProt P07947); test: as above
ZAK = ZAK (UniProt Q9NYL2); test: as above
ZAP70 = ZAP70 (UniProt P43403); test: as above
CDK4 = CDK4 (UniProt P11802); test: number of time points (of 4; 2 h point missing) at which kinase-Nluc abundance scored as decreased, DMSO-normalised (count); higher = more persistent destabilization
CDK7 = CDK7 (UniProt P50613); test: as above

C[C@H](CCC(=O)NCCS(=O)(=O)O)[C@H]1CC[C@H]2[C@@H]3[C@@H](O)C[C@@H]4C[C@H](O)CC[C@]4(C)[C@H]3CC[C@]12C [Tauroursodeoxycholate (dihydrate)]
inactive: kinase-Nluc reporter destabilization hit call (RET; 10 µM) 0 | kinase-Nluc reporter destabilization hit call ([1]; 10 µM) 0 | kinase-Nluc reporter destabilization hit call (RIOK1; 10 µM) 0 | kinase-Nluc reporter destabilization hit call (RIPK1; 10 µM) 0 | kinase-Nluc reporter destabilization hit call (RIPK2; 10 µM) 0 | kinase-Nluc reporter destabilization hit call (ROR2; 10 µM) 0 | kinase-Nluc reporter destabilization hit call (RPS6KA1; 10 µM) 0 | kinase-Nluc reporter destabilization hit call (SPHK1; 10 µM) 0 | kinase-Nluc reporter destabilization hit call (SRC; 10 µM) 0 | kinase-Nluc reporter destabilization hit call (STK24; 10 µM) 0 | kinase-Nluc reporter destabilization hit call (STK38; 10 µM) 0 | kinase-Nluc reporter destabilization hit call (SYK; 10 µM) 0 | kinase-Nluc reporter destabilization hit call (TEC; 10 µM) 0 | kinase-Nluc reporter destabilization hit call (TYK2; 10 µM) 0 | kinase-Nluc reporter destabilization hit call (ULK3; 10 µM) 0 | kinase-Nluc reporter destabilization hit call (YES1; 10 µM) 0 | kinase-Nluc reporter destabilization hit call (ZAK; 10 µM) 0 | kinase-Nluc reporter destabilization hit call (ZAP70; 10 µM) 0
0: number of time points (CDK4; 10 µM) | number of time points (CDK7; 10 µM)

CNC(=O)c1cc(Oc2ccc(NC(=O)Nc3ccc(Cl)c(C(F)(F)F)c3)c(F)c2)ccn1 [Regorafenib]
3: number of time points (CDK7; 2.5 µM)
0: number of time points (CDK4; 2.5 µM)
inactive: kinase-Nluc reporter destabilization hit call (RET; 2.5 µM) 0 | kinase-Nluc reporter destabilization hit call ([1]; 2.5 µM) 0 | kinase-Nluc reporter destabilization hit call (RIOK1; 2.5 µM) 0 | kinase-Nluc reporter destabilization hit call (RIPK1; 2.5 µM) 0 | kinase-Nluc reporter destabilization hit call (RIPK2; 2.5 µM) 0 | kinase-Nluc reporter destabilization hit call (ROR2; 2.5 µM) 0 | kinase-Nluc reporter destabilization hit call (RPS6KA1; 2.5 µM) 0 | kinase-Nluc reporter destabilization hit call (SPHK1; 2.5 µM) 0 | kinase-Nluc reporter destabilization hit call (SRC; 2.5 µM) 0 | kinase-Nluc reporter destabilization hit call (STK24; 2.5 µM) 0 | kinase-Nluc reporter destabilization hit call (STK38; 2.5 µM) 0 | kinase-Nluc reporter destabilization hit call (SYK; 2.5 µM) 0 | kinase-Nluc reporter destabilization hit call (TEC; 2.5 µM) 0 | kinase-Nluc reporter destabilization hit call (TYK2; 2.5 µM) 0 | kinase-Nluc reporter destabilization hit call (ULK3; 2.5 µM) 0 | kinase-Nluc reporter destabilization hit call (YES1; 2.5 µM) 0 | kinase-Nluc reporter destabilization hit call (ZAK; 2.5 µM) 0 | kinase-Nluc reporter destabilization hit call (ZAP70; 2.5 µM) 0

CS(=O)(=O)N1CCN(Cc2cc3nc(-c4cccc5[nH]ncc45)nc(N4CCOCC4)c3s2)CC1 [Pictilisib (dimethanesulfonate)]
0: number of time points (CDK4; 10 µM) | number of time points (CDK7; 10 µM)
inactive: kinase-Nluc reporter destabilization hit call (RET; 10 µM) 0 | kinase-Nluc reporter destabilization hit call ([1]; 10 µM) 0 | kinase-Nluc reporter destabilization hit call (RIOK1; 10 µM) 0 | kinase-Nluc reporter destabilization hit call (RIPK1; 10 µM) 0 | kinase-Nluc reporter destabilization hit call (RIPK2; 10 µM) 0 | kinase-Nluc reporter destabilization hit call (ROR2; 10 µM) 0 | kinase-Nluc reporter destabilization hit call (RPS6KA1; 10 µM) 0 | kinase-Nluc reporter destabilization hit call (SPHK1; 10 µM) 0 | kinase-Nluc reporter destabilization hit call (SRC; 10 µM) 0 | kinase-Nluc reporter destabilization hit call (STK24; 10 µM) 0 | kinase-Nluc reporter destabilization hit call (STK38; 10 µM) 0 | kinase-Nluc reporter destabilization hit call (SYK; 10 µM) 0 | kinase-Nluc reporter destabilization hit call (TEC; 10 µM) 0 | kinase-Nluc reporter destabilization hit call (TYK2; 10 µM) 0 | kinase-Nluc reporter destabilization hit call (ULK3; 10 µM) 0 | kinase-Nluc reporter destabilization hit call (YES1; 10 µM) 0 | kinase-Nluc reporter destabilization hit call (ZAK; 10 µM) 0 | kinase-Nluc reporter destabilization hit call (ZAP70; 10 µM) 0

COc1ccc(S(=O)(=O)Nc2ccccc2CN(C)C/C=C/c2ccc(Cl)cc2)cc1 [KN-92 (hydrochloride)]
inactive: kinase-Nluc reporter destabilization hit call (RET; 2.5 µM) 0 | kinase-Nluc reporter destabilization hit call ([1]; 2.5 µM) 0 | kinase-Nluc reporter destabilization hit call (RIOK1; 2.5 µM) 0 | kinase-Nluc reporter destabilization hit call (RIPK1; 2.5 µM) 0 | kinase-Nluc reporter destabilization hit call (RIPK2; 2.5 µM) 0 | kinase-Nluc reporter destabilization hit call (ROR2; 2.5 µM) 0 | kinase-Nluc reporter destabilization hit call (RPS6KA1; 2.5 µM) 0 | kinase-Nluc reporter destabilization hit call (SPHK1; 2.5 µM) 0 | kinase-Nluc reporter destabilization hit call (SRC; 2.5 µM) 0 | kinase-Nluc reporter destabilization hit call (STK24; 2.5 µM) 0 | kinase-Nluc reporter destabilization hit call (STK38; 2.5 µM) 0 | kinase-Nluc reporter destabilization hit call (SYK; 2.5 µM) 0 | kinase-Nluc reporter destabilization hit call (TEC; 2.5 µM) 0 | kinase-Nluc reporter destabilization hit call (TYK2; 2.5 µM) 0 | kinase-Nluc reporter destabilization hit call (ULK3; 2.5 µM) 0 | kinase-Nluc reporter destabilization hit call (YES1; 2.5 µM) 0 | kinase-Nluc reporter destabilization hit call (ZAK; 2.5 µM) 0 | kinase-Nluc reporter destabilization hit call (ZAP70; 2.5 µM) 0
0: number of time points (CDK4; 2.5 µM) | number of time points (CDK7; 2.5 µM)

CC(=O)c1c(C)c2cnc(Nc3ccc(N4CCNCC4)cn3)nc2n(C2CCCC2)c1=O [Palbociclib (isethionate)]
inactive: kinase-Nluc reporter destabilization hit call (RET; 10 µM) 0 | kinase-Nluc reporter destabilization hit call ([1]; 10 µM) 0 | kinase-Nluc reporter destabilization hit call (RIOK1; 10 µM) 0 | kinase-Nluc reporter destabilization hit call (RIPK1; 10 µM) 0 | kinase-Nluc reporter destabilization hit call (RIPK2; 10 µM) 0 | kinase-Nluc reporter destabilization hit call (ROR2; 10 µM) 0 | kinase-Nluc reporter destabilization hit call (RPS6KA1; 10 µM) 0 | kinase-Nluc reporter destabilization hit call (SPHK1; 10 µM) 0 | kinase-Nluc reporter destabilization hit call (SRC; 10 µM) 0 | kinase-Nluc reporter destabilization hit call (STK24; 10 µM) 0 | kinase-Nluc reporter destabilization hit call (STK38; 10 µM) 0 | kinase-Nluc reporter destabilization hit call (SYK; 10 µM) 0 | kinase-Nluc reporter destabilization hit call (TEC; 10 µM) 0 | kinase-Nluc reporter destabilization hit call (TYK2; 10 µM) 0 | kinase-Nluc reporter destabilization hit call (ULK3; 10 µM) 0 | kinase-Nluc reporter destabilization hit call (YES1; 10 µM) 0 | kinase-Nluc reporter destabilization hit call (ZAK; 10 µM) 0 | kinase-Nluc reporter destabilization hit call (ZAP70; 10 µM) 0
0: number of time points (CDK4; 10 µM) | number of time points (CDK7; 10 µM)

COc1cc2c(Oc3ccc4[nH]c(C)cc4c3F)ncnc2cc1OCCCN1CCCC1 [Cediranib]
inactive: kinase-Nluc reporter destabilization hit call (RET; 2.5 µM) 0 | kinase-Nluc reporter destabilization hit call ([1]; 2.5 µM) 0 | kinase-Nluc reporter destabilization hit call (RIOK1; 2.5 µM) 0 | kinase-Nluc reporter destabilization hit call (RIPK1; 2.5 µM) 0 | kinase-Nluc reporter destabilization hit call (RIPK2; 2.5 µM) 0 | kinase-Nluc reporter destabilization hit call (ROR2; 2.5 µM) 0 | kinase-Nluc reporter destabilization hit call (RPS6KA1; 2.5 µM) 0 | kinase-Nluc reporter destabilization hit call (SPHK1; 2.5 µM) 0 | kinase-Nluc reporter destabilization hit call (SRC; 2.5 µM) 0 | kinase-Nluc reporter destabilization hit call (STK24; 2.5 µM) 0 | kinase-Nluc reporter destabilization hit call (STK38; 2.5 µM) 0 | kinase-Nluc reporter destabilization hit call (SYK; 2.5 µM) 0 | kinase-Nluc reporter destabilization hit call (TEC; 2.5 µM) 0 | kinase-Nluc reporter destabilization hit call (TYK2; 2.5 µM) 0 | kinase-Nluc reporter destabilization hit call (ULK3; 2.5 µM) 0 | kinase-Nluc reporter destabilization hit call (YES1; 2.5 µM) 0 | kinase-Nluc reporter destabilization hit call (ZAK; 2.5 µM) 0 | kinase-Nluc reporter destabilization hit call (ZAP70; 2.5 µM) 0
0: number of time points (CDK4; 2.5 µM) | number of time points (CDK7; 2.5 µM)

CCCCCCCCc1ccc(CCC(N)(CO)CO)cc1 [Fingolimod]
inactive: kinase-Nluc reporter destabilization hit call (RET; 2.5 µM) 0 | kinase-Nluc reporter destabilization hit call ([1]; 2.5 µM) 0 | kinase-Nluc reporter destabilization hit call (RIOK1; 2.5 µM) 0 | kinase-Nluc reporter destabilization hit call (RIPK1; 2.5 µM) 0 | kinase-Nluc reporter destabilization hit call (RIPK2; 2.5 µM) 0 | kinase-Nluc reporter destabilization hit call (ROR2; 2.5 µM) 0 | kinase-Nluc reporter destabilization hit call (RPS6KA1; 2.5 µM) 0 | kinase-Nluc reporter destabilization hit call (SPHK1; 2.5 µM) 0 | kinase-Nluc reporter destabilization hit call (SRC; 2.5 µM) 0 | kinase-Nluc reporter destabilization hit call (STK24; 2.5 µM) 0 | kinase-Nluc reporter destabilization hit call (STK38; 2.5 µM) 0 | kinase-Nluc reporter destabilization hit call (SYK; 2.5 µM) 0 | kinase-Nluc reporter destabilization hit call (TEC; 2.5 µM) 0 | kinase-Nluc reporter destabilization hit call (TYK2; 2.5 µM) 0 | kinase-Nluc reporter destabilization hit call (ULK3; 2.5 µM) 0 | kinase-Nluc reporter destabilization hit call (YES1; 2.5 µM) 0 | kinase-Nluc reporter destabilization hit call (ZAK; 2.5 µM) 0 | kinase-Nluc reporter destabilization hit call (ZAP70; 2.5 µM) 0
0: number of time points (CDK4; 2.5 µM) | number of time points (CDK7; 2.5 µM)

CC(=O)Nc1cccc(-n2c(=O)n(C3CC3)c(=O)c3c(Nc4ccc(I)cc4F)n(C)c(=O)c(C)c32)c1 [Trametinib]
inactive: kinase-Nluc reporter destabilization hit call (RET; 10 µM) 0 | kinase-Nluc reporter destabilization hit call ([1]; 10 µM) 0 | kinase-Nluc reporter destabilization hit call (RIOK1; 10 µM) 0 | kinase-Nluc reporter destabilization hit call (RIPK1; 10 µM) 0 | kinase-Nluc reporter destabilization hit call (RIPK2; 10 µM) 0 | kinase-Nluc reporter destabilization hit call (ROR2; 10 µM) 0 | kinase-Nluc reporter destabilization hit call (RPS6KA1; 10 µM) 0 | kinase-Nluc reporter destabilization hit call (SPHK1; 10 µM) 0 | kinase-Nluc reporter destabilization hit call (SRC; 10 µM) 0 | kinase-Nluc reporter destabilization hit call (STK24; 10 µM) 0 | kinase-Nluc reporter destabilization hit call (STK38; 10 µM) 0 | kinase-Nluc reporter destabilization hit call (SYK; 10 µM) 0 | kinase-Nluc reporter destabilization hit call (TEC; 10 µM) 0 | kinase-Nluc reporter destabilization hit call (ULK3; 10 µM) 0 | kinase-Nluc reporter destabilization hit call (YES1; 10 µM) 0 | kinase-Nluc reporter destabilization hit call (ZAK; 10 µM) 0 | kinase-Nluc reporter destabilization hit call (ZAP70; 10 µM) 0
active: kinase-Nluc reporter destabilization hit call (TYK2; 10 µM) 1
3: number of time points (CDK4; 10 µM) | number of time points (CDK7; 10 µM)
